Assay results taken from PubChem BioAssay AID1458 (National Center for Advancing Translational Sciences (NCATS), 2008).
Screen size: about 210,000 compounds; about 5,900 (2.8%) were called active. Another 5% or so got no clear call; they are omitted. Calls follow the shape of the dose curve; as a rule, active = well fitted activation curve with a large enough effect; inconclusive = small, poorly fitted or top-dose-only effect; inactive = no such curve, though single readings can be large or run the other way. The list shows a part of the results, in another mix than the full data. Entries without a call were filed so in the source.

experiment: qHTS Assay for Enhancers of SMN2 Splice Variant Expression; conditions: HEK293 SMN2-luciferase splicing reporter, luminescence, 30-36 h; activity change, positive = activation: at 46.1 µM (top of the series) unless noted; also: nearly all actives have a fitted effect of over 55% in size; as to activity change, positive = activation: % of control where 0% means no effect
Summary of the method: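 HEK293 cells carry an SMN2 minigene-luciferase reporter in which exon 7 inclusion puts luciferase in frame. Cells were seeded at 2000 cells/well, attached for 10-12 hours, then exposed to compounds for 30-36 hours at 37C before ONE-Glo luminescence.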
Potency is read from the fitted curve at half-maximal effect.

Row | SMILES | Potency | activity change, positive = activation
1 | O=C(/C=C/c1ccc([N+](=O)[O-])cc1)Nc1ncc([N+](=O)[O-])s1 | active: 0.501 µM | 
2 | CN(C)S(=O)(=O)N1CCN(S(=O)(=O)c2ccc(F)cc2)CC1 |  | 48.5%
3 | Cc1cc(C(=O)N/N=C2\CC(=O)CC(C)(C)C2)c(C)n1-c1ccccc1 |  | inactive: -48.5%
4 | O=S1(=O)C=C(Oc2ccc3ccccc3c2)c2ccccc21 |  | -38.6%
5 | Cc1ccccc1-c1nnn(CC(=O)Nc2ccc3c(c2)OCCO3)n1 |  | 6.49%
6 | Cc1ccc(NC2=C/C(=N/S(=O)(=O)c3cccs3)c3ccccc3C2=O)cc1 |  | -108%
7 | Cc1cccc(NC(=O)c2onc3c2CCCC3)n1 |  | -9.1%
8 | O=C(Nc1nc(-c2cccs2)cs1)C1=COCCO1 | active: 12.6 µM | 
9 | Cc1cc(=O)n2cc(-c3ccccc3)nc2[nH]1 |  | 59.2%
10 | CCCn1c(CNc2ccc(Br)cc2)nc2ccccc21 |  | inactive: -39.2%
11 | Cc1nc2ccccc2n1CC(=O)NC(C)C1CC2CCC1C2 (stereo not given) |  | inactive: -48.4%
12 | CCOc1ccc(S(=O)(=O)NCc2ccco2)c2ccccc12 |  | 33.9%
13 | CCCCc1ccc(NC(=O)CC(C)(C)C)cc1 |  | 151%
14 | COc1ccc(CC2S/C(=C(\C#N)C(=O)NCc3ccco3)N(c3ccc(C)cc3)C2=O)cc1 (stereo not given) |  | 35.2%
15 | c1ccc2c(CCNc3ncnc4nc[nH]c34)cccc2c1 |  | inactive: -61.7%
16 | O=C(O)CCCCCNC(=O)Nc1ccc2c(c1)OCCO2 |  | 31.5%
17 | Cc1cccc(/C(N)=N/OC(=O)c2ccco2)c1 | active: 15.8 µM | 
18 | COc1ccc(C(=O)Nc2ccccc2C(=O)N/N=C/c2ccco2)cc1 |  | 58%
19 | CCc1cc2c(cc3c(=O)n(CC(=O)N4CCCCC4)ncn32)s1 |  | -36.9%
20 | CCOC(=O)C1=C(CNC2CCCCC2)NC(=O)NC1c1cc(C)ccc1C (stereo not given) |  | 28.4%
21 | O=c1cc(O)c2sc(Nc3cccc(C(F)(F)F)c3)nc2[nH]1 |  | -0.371%
22 | CCOC(=O)/C=C1\SCC(=O)N1CC(=O)NCCc1ccc(F)cc1 |  | -11.8%
23 | CC(C)CNS(=O)(=O)c1ccc(OCC(=O)Nc2ccc3c(c2)OCCO3)cc1 |  | 31%
24 | c1ccc2sc(-c3ccc4c(c3)OCO4)nc2c1 | active: 7.08 µM | 
25 | CCOC(=O)c1sc(N/N=C/c2ccccc2)nc1C | active: 12.6 µM | 
26 | CCc1ccc(C(=O)Nc2ccc(S(=O)(=O)Nc3nc(C)cc(C)n3)cc2)o1 |  | 86.1%
27 | COC(=O)c1ccccc1NC(=O)CN(C)S(=O)(=O)c1ccc(OC)cc1 |  | 2.1%
28 | Cc1ccc(-n2[nH]c(C)c(/C=N/NC(=O)c3cccc([N+](=O)[O-])c3)c2=O)cc1C |  | -90.9%
29 | N#Cc1cn(-c2ccccc2)nc1-c1cc2ccccc2oc1=O |  | 50.6%
30 | CC(=O)N/N=C(\C)c1ccc(Br)cc1Br |  | 81.1%

In another format: 6 of the compounds above
Row	SMILES	Potency	activity change, positive = activation
3	Cc1cc(C(=O)N/N=C2\CC(=O)CC(C)(C)C2)c(C)n1-c1ccccc1		inactive: -48.5%
4	O=S1(=O)C=C(Oc2ccc3ccccc3c2)c2ccccc21		-38.6%
5	Cc1ccccc1-c1nnn(CC(=O)Nc2ccc3c(c2)OCCO3)n1		6.49%
6	Cc1ccc(NC2=C/C(=N/S(=O)(=O)c3cccs3)c3ccccc3C2=O)cc1		-108%
7	Cc1cccc(NC(=O)c2onc3c2CCCC3)n1		-9.1%
8	O=C(Nc1nc(-c2cccs2)cs1)C1=COCCO1	active: 12.6 µM	
